Data as given in the supplement of paper PMC12067093, “Discovery and optimisation of a covalent ligand for TRIM25 and its application to targeted protein ubiquitination” (Chemical Science, 2025).
Some of the results follow.

Chains of the proteins cited; added tags and fusions are not shown. Lines headed by an entry give the natural chain unless they say otherwise; changes in a name come on top.
UniProt P46199: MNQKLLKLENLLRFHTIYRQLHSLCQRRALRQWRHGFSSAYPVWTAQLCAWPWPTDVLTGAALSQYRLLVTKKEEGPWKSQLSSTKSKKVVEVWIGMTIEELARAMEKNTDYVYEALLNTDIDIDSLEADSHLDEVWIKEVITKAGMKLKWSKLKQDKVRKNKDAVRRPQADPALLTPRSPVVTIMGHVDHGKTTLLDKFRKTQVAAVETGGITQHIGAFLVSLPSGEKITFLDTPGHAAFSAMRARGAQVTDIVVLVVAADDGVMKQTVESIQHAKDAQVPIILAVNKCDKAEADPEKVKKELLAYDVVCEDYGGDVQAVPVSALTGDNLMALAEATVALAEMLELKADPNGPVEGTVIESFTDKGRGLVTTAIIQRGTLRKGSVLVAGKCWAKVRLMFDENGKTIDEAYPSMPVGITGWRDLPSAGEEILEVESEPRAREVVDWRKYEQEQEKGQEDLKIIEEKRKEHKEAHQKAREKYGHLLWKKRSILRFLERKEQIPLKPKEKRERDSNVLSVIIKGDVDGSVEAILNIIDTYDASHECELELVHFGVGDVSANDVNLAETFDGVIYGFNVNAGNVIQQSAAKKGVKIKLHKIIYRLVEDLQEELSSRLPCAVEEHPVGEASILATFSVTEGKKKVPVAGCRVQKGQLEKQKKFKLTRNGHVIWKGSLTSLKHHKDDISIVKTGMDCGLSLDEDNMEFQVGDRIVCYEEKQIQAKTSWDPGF
UniProt Q6UB35, whole entry, looked up: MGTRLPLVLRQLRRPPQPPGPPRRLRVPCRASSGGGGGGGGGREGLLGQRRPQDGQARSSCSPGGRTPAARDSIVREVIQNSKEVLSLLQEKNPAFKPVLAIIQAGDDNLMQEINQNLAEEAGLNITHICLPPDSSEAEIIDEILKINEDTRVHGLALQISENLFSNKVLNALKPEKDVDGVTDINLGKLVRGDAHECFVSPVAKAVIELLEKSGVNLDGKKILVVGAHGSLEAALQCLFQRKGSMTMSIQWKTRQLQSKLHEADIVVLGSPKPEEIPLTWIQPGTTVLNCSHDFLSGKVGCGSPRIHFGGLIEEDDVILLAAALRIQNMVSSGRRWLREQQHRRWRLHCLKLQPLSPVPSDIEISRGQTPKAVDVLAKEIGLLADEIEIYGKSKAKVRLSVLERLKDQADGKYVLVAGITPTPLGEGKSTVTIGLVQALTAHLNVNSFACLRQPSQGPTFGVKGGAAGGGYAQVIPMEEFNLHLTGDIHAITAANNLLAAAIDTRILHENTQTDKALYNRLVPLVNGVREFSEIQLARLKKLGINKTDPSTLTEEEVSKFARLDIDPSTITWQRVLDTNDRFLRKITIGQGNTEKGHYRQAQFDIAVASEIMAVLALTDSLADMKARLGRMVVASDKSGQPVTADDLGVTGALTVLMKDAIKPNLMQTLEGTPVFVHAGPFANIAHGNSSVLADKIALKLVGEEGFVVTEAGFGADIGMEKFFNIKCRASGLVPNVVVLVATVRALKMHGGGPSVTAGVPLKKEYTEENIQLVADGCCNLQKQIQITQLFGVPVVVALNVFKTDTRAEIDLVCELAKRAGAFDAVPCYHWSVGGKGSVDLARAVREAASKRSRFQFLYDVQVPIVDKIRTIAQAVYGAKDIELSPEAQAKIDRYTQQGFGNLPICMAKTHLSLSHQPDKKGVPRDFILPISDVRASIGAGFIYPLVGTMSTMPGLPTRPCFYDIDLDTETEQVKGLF
UniProt P35579, whole entry, looked up: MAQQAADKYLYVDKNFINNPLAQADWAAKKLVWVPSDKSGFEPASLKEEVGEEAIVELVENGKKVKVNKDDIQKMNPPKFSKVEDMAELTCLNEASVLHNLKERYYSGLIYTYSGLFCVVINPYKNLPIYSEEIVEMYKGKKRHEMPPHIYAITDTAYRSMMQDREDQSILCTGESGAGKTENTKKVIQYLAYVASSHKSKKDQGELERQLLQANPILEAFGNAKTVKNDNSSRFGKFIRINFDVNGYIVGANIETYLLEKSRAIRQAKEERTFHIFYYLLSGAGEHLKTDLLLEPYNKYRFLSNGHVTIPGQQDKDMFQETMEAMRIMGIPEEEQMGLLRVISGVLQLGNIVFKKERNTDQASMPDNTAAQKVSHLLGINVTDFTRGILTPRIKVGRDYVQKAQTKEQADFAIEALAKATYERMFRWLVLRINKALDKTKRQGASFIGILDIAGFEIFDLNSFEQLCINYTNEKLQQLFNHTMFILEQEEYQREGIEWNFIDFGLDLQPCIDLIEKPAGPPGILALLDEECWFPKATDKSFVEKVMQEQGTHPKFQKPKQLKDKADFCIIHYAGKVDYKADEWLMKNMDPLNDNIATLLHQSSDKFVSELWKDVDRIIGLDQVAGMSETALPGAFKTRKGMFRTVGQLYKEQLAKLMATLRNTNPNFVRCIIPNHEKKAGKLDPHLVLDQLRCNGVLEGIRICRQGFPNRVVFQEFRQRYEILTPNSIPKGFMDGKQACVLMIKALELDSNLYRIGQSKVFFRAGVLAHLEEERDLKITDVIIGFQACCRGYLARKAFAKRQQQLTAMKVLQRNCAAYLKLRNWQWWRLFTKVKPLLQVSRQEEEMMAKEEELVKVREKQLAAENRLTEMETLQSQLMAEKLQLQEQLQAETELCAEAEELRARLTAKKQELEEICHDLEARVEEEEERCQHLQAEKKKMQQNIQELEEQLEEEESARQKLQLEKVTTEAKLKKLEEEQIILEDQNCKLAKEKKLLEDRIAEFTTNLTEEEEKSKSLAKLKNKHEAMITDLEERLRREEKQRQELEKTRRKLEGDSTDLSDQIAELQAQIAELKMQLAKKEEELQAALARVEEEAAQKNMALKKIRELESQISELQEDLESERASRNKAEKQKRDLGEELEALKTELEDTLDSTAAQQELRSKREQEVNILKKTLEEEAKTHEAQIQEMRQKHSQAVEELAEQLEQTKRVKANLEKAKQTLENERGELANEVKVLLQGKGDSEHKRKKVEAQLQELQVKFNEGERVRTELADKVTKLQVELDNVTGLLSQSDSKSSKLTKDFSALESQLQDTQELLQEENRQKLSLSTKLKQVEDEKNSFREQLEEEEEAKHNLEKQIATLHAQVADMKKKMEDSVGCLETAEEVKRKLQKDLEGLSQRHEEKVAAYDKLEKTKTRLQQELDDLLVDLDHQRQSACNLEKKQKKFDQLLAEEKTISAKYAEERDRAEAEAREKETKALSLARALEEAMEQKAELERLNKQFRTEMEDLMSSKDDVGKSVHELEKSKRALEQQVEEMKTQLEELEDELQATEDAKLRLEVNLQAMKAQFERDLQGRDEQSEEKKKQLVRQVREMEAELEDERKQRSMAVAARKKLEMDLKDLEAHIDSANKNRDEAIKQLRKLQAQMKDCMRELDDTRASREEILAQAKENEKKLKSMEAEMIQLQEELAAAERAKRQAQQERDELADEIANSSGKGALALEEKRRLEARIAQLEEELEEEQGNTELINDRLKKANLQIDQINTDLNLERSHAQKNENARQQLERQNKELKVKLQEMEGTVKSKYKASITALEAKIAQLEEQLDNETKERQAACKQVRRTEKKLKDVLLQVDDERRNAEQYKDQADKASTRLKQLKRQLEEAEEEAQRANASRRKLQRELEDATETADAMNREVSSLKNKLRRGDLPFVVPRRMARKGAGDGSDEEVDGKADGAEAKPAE
UniProt Q9Y3D2: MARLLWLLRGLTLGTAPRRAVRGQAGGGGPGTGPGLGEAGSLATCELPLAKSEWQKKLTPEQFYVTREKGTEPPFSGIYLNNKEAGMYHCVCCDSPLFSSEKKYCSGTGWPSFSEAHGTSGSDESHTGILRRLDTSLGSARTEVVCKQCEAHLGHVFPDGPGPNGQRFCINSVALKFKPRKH
UniProt P42285: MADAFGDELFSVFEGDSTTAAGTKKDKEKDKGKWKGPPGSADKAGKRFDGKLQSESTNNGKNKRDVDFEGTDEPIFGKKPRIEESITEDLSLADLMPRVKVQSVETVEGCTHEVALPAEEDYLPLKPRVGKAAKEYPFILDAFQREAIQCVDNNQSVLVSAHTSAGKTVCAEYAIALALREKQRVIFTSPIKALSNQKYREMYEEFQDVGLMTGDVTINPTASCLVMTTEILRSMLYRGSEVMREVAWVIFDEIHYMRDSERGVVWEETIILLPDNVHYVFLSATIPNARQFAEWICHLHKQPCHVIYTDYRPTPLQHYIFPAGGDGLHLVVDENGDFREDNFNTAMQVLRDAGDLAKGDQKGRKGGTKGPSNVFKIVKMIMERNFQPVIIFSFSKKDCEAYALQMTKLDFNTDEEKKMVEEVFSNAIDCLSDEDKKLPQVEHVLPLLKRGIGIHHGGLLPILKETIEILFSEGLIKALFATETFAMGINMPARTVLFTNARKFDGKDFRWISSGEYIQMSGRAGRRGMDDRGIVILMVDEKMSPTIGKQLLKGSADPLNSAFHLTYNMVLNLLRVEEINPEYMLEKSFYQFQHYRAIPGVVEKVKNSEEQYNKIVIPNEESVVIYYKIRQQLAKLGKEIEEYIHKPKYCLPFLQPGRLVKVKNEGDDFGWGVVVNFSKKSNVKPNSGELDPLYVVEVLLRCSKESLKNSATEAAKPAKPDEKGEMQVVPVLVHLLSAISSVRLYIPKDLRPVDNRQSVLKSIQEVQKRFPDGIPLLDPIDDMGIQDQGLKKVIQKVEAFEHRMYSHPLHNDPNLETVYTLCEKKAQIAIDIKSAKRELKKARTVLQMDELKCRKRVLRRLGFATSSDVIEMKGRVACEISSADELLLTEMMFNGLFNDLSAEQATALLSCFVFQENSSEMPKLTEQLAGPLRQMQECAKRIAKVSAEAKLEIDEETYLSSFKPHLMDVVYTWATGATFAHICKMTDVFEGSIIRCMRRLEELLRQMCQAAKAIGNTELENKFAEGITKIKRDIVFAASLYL
UniProt P10244: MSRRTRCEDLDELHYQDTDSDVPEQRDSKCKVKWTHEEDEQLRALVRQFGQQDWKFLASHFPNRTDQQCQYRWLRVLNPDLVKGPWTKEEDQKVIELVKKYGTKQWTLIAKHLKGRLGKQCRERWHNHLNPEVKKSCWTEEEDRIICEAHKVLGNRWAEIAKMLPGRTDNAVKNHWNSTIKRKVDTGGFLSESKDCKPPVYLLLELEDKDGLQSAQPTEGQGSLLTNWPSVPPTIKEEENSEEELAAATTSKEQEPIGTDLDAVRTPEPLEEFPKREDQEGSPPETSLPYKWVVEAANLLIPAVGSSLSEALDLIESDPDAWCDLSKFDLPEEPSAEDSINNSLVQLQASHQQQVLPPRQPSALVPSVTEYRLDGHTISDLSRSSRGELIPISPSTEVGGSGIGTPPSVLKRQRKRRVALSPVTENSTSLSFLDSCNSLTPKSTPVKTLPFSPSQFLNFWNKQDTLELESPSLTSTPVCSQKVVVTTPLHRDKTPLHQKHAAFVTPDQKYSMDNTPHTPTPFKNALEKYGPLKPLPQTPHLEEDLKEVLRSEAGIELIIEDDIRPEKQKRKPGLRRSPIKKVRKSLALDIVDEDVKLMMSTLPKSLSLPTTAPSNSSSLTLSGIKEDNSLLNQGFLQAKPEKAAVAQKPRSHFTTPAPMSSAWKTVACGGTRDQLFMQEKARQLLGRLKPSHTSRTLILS
UniProt Q96DP5: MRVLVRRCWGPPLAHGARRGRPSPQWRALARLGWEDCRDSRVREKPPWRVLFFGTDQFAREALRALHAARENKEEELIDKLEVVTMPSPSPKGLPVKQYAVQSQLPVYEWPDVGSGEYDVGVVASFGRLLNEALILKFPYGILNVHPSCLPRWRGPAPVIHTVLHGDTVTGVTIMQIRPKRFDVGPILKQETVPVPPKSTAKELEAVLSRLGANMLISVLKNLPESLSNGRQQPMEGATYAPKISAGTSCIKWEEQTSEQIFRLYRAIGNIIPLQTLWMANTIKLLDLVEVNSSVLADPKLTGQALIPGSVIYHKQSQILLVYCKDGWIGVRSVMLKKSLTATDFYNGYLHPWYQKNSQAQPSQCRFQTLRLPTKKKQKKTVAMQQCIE
UniProt Q13496: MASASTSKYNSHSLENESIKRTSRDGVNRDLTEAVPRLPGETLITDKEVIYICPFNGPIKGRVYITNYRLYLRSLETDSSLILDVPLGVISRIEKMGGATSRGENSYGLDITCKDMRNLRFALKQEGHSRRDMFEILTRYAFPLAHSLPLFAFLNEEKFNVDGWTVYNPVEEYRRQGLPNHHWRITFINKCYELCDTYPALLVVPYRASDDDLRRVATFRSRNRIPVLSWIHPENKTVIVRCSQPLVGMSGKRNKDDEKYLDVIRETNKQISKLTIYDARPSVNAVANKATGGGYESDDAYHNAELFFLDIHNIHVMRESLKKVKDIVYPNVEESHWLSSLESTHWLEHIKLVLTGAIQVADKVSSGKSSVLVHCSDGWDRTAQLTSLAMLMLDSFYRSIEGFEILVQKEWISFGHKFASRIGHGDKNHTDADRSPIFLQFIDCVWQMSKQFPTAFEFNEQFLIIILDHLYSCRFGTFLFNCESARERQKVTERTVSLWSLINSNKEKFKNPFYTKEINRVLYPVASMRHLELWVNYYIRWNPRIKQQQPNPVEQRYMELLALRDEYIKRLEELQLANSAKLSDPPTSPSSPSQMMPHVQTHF

Compound: CC1Cc2ccccc2N1C(=O)C1CCCN(C1)C(=O)CCl (mixture of isomers) [TRIM25 ligand 11 (diastereomer mixture)]
Test: probe-labelled cysteine peptide fold change vs DMSO (competition) (log2 fold change); higher = less target engagement (more negative = stronger competition)
Conditions: THP-1, incubation time: 4 h
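Further: competitive chemoproteomic profiling in live THP-1 cells with an iodoacetamide desthiobiotin (IA-DTB) probe, comparing probe-labelled peptide intensities in compound-treated cells against DMSO-treated controls.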

Target | probe-labelled cysteine peptide fold change (10 µM) | probe-labelled cysteine peptide fold change (50 µM)
MTCH1_Q9NZJ7_222_CMVQFVGR (UniProt Q9NZJ7) | 0.102 | 0.0563
MTMR14_Q8NCE2_131_FVCPVILFK (UniProt Q8NCE2) | -0.082 | 0.0503
MYCBP2_O75592_505_CLHACGISLFDLEK (UniProt O75592) | 0.188 | 0.00481
MTMR1_Q13613_258_INSNYEFCDTYPAIIVVPTSVK (UniProt Q13613) | -0.063 | -0.0241
MTIF2_P46199_646_KKVPVAGCR (UniProt P46199) | -0.131 | 0.0545
MTMR10_Q9NXD2_104_NLLLGEHDVPLTCIEQIVTVNDHK (UniProt Q9NXD2) | 0.158 | 0.0385
MYCBP2_O75592_3632_VCEHPLSDIVIAGEAAHPLPHTFHR (UniProt O75592) | -0.0436 | 0.143
MTHFD1L_Q6UB35_814_AEIDLVCELAK (UniProt Q6UB35) | 0.194 | 0.00519
MTMR12_Q9C0I1_53_EVTLHLLPGEQLLCEASTVLK (UniProt Q9C0I1) | -0.0998 | -0.173
MRPS5_P82675_377_GLHVVEIREECGPLPIVVASPR (UniProt P82675) | -0.00459 | -0.0614
MTOR_P42345_1593_AYGAMVSCHMLSELEEVIQYK (UniProt P42345) | 0.161 | -0.237
MTRF1L_Q9UGC7_103_LAENEITLCQK (UniProt Q9UGC7) | -0.0422 | 0.0547
MYH9_P35579_671_CIIPNHEKK (UniProt P35579) | -0.608 | -0.373
MRPS31_Q92665_356_HFMELVTCGLSK (UniProt Q92665) | -0.00441 | -0.00908
MTA3_Q9BTC8_532_KPLACIIGYLEIHPAK (UniProt Q9BTC8) | -0.247 | -0.124
MYCBP2_O75592_4356_EHTGKPTTSSSEACR (UniProt O75592) | -0.0372 | -0.0921
MRPS30_Q9NP92_393_NICWGTQSK (UniProt Q9NP92) | -0.11 | 0.013
MYCBP2_O75592_4672_QLEGTECPLHVVHPPTGEEFALGCGVCR (UniProt O75592) | 0.121 | -0.107
MSRB2_Q9Y3D2_45_GQAGGGGPGTGPGLGEAGSLATCELPLAK (UniProt Q9Y3D2) | -0.113 | -0.378
MTREX_P42285_430_KMVEEVFSNAIDCLSDEDK (UniProt P42285) | -0.292 | -0.239

Record cards, as listed above:
MSRB2_Q9Y3D2_45_GQAGGGGPGTGPGLGEAGSLATCELPLAK (UniProt Q9Y3D2) is listed as probe-labelled cysteine peptide fold change (10 µM) = -0.113; probe-labelled cysteine peptide fold change (50 µM) = -0.378
MTIF2_P46199_646_KKVPVAGCR (UniProt P46199) is listed as probe-labelled cysteine peptide fold change (10 µM) = -0.131; probe-labelled cysteine peptide fold change (50 µM) = 0.0545
MRPS30_Q9NP92_393_NICWGTQSK (UniProt Q9NP92) is listed as probe-labelled cysteine peptide fold change (10 µM) = -0.11; probe-labelled cysteine peptide fold change (50 µM) = 0.013

Continuation.

Target | probe-labelled cysteine peptide fold change (10 µM) | probe-labelled cysteine peptide fold change (50 µM)
MRPS34_P82930_93_SWLWQHDEPCYWR (UniProt P82930) | 0.0173 | 0.142
MYH9_P35579_569_ADFCIIHYAGK (UniProt P35579) | 0.114 | 0.0759
MTF2_Q9Y483_220_MLQCCK (UniProt Q9Y483) | -0.0557 | -0.0499
MTMR2_Q13614_284_CSQPMVGVSGK (UniProt Q13614) | -0.105 | -0.182
MSH3_P20585_274_ELNIYCHLDHNFMTASIPTHR (UniProt P20585) | -0.0413 | 0.119
MYBL2_P10244_147_SCWTEEEDRIICEAHK (UniProt P10244) | -0.107 | 0.0609
MVB12B_Q9H7P6_161_DSTEAAICDIR (UniProt Q9H7P6) | -0.078 | -0.0296
MVB12A_Q96EY5_90_SPLPLGFSPVCDPMDSK (UniProt Q96EY5) | -0.167 | -0.188
MSH6_P52701_1158+1165_QAGLLAVMAQMGCYVPAEVCR (UniProt P52701) | -0.115 | -0.66
MSL3P1_P0C860_283_SSPHTANCDR (UniProt P0C860) | 0.0299 | -0.16
MTFMT_Q96DP5_365_NSQAQPSQCR (UniProt Q96DP5) | -0.0914 | -0.109
MTMR3_Q13615_473_CPVFLQWLDCVHQLQR (UniProt Q13615) | 0.0489 | 0.151
MRPS18C_Q9Y3D5_100_HITGLCGK (UniProt Q9Y3D5) | -0.114 | -0.331
MTREX_P42285_430_MVEEVFSNAIDCLSDEDK (UniProt P42285) | 0.0384 | -0.00135
MSH2_P43246_822_GVCDQSFGIHVAELANFPK (UniProt P43246) | -0.0423 | 0.0132
MTHFD1L_Q6UB35_198_GDAHECFVSPVAK (UniProt Q6UB35) | 0.0264 | 0.007
MYCBP2_O75592_4318_QVFKEEEEAIKVDLHEGCGR (UniProt O75592) | -0.114 | -0.119
MTMR1_Q13613_438_TSVVVHCSDGWDR (UniProt Q13613) | 0.559 | -0.0364
MTM1_Q13496_113_GENSYGLDITCK (UniProt Q13496) | -0.045 | -0.119
MTA2_O94776_261_AMSTLVPQGGPVLCRDEMEEWSASEAMLFEEALEK (UniProt O94776) | -0.0936 | -0.0272
